From patent US20170107569, “METHOD FOR ATTACHING ONE OR MORE POLYNUCLEOTIDE BINDING PROTEINS TO A TARGET POLYNUCLEOTIDE” (Oxford Nanopore Technologies Ltd., published 2017) come the findings set out here.

Residue numbers refer to the chain shown, from its start. The exact form of at least one protein or probe is not confirmed. Protein sequences can lack the tags named with them.

For data set [1], the target named is T1, T4 Dda-E94C/C109A/C136A/A360C helicase (UniProt P32270).
T1 sequence: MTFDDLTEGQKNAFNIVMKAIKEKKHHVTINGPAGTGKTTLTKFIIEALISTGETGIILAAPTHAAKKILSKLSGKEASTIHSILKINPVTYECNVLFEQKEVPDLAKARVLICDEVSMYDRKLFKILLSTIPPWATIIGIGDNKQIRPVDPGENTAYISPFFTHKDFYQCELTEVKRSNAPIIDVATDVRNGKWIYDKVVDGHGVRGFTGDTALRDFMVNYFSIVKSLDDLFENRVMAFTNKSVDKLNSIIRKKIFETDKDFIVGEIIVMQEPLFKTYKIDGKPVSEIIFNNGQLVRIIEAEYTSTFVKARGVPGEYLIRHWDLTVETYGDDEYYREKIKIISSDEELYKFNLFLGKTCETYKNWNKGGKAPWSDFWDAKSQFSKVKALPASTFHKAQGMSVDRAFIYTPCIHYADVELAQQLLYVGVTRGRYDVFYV
Description: activity assay. As to conditions: 5' phosphate on SEQ 36; 4 iSp18 between SEQ 36 and SEQ 37; iBNA-meC, two iBNA-A, two iBNA-meC and iSp18 spacers between SEQ 34 and SEQ 35; pre-loaded as Example 2; helicase-controlled DNA movement through MspA nanopore, ATP and Mg2+; purified recombinant protein; protein details: closed with TMAD.

For data set [2], the target named is T2, T4 Dda-(H82R/E94C/A360C) helicase (UniProt P32270).
T2 sequence: T1 sequence with H82R, A109C, A136C
Description: activity assay. As to conditions: 39 SpC3 at 5' end of SEQ 32; 4 iSp18 between SEQ 32 and SEQ 33; iBNA-meC, two iBNA-A, two iBNA-meC and iSp18 spacers between SEQ 34 and SEQ 35; pre-loaded as Example 2; helicase-controlled DNA movement through MspA nanopore, ATP and Mg2+; purified recombinant protein.

“TGAGTGACCAATCAGCTACGTTTTTTTTTTTTGGTTGTTTCTGTTGGTGCTGATATTGCT / GCAATATCAGCACCAACAGAAAGAGGCGAGCGGTCAA / CGTAGCTGATTGGTCACTCAGT [END-piece (Example 6)]”: the “activity on this sequence” value in data set [1] is on record as “active”.

Turning to “TTTTTTTTTTGGTTGTTTCTGTTGGTGCTGATATTGCAC / GCAATATCAGCACCAACAGAAAGAGGCGAGCGGTCAA [A-piece (Example 6)]”, in data set [2], the “activity on this sequence” value is on record as “active”.
